# These are yes or no findings as the source states them, for the method shown. Tags and fused reporters may be left off the sequences shown.
# Tests used:
# [1] = molecular target: T1, IQ motif peptide of myosin 1B (native) (Entamoeba histolytica); experiment: SPR; both purified
# T1 sequence (peptide): IQKAWKGYRNRKR
# [2] = molecular target: T2, Second IQ motif peptide of heavy chain myosin (myosin II) (Entamoeba histolytica); experiment: SPR; both purified
# T2 sequence (peptide): LQACARAFAARKHFS
Substance,binding [1],binding [2]
EhCaBP3 (Entamoeba histolytica),no binding (tested: 750 nM),
"Entamoeba histolytica calcium binding protein-5 (EhCaBP5), recombinant",,no binding (tested: up to 2000 nM)
